According to PubChem BioAssay AID587 (National Center for Advancing Translational Sciences (NCATS), 2007):
Hit rate of the full screen: of about 59,000 compounds, about 35 (0.06%) were called active. The shares of active, inactive and inconclusive entries below differ from those in the screen. No stated cut-off is given here; in the data, active means max dye-equivalent concentration above about 10 nM; inconclusive means between about 1.1 nM and that limit; inactive means weaker than that.

test: qHTS Assay for Spectroscopic Profiling in Texas Red Spectral Region; conditions: Compound fluorescence, Texas Red channel, 547/618 nm; stronger effect = higher value
In short: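 qHTS profiling of intrinsic compound fluorescence; 100 mM Tris pH 8.0; 15 min RT; ex 547 / em 618 nm; response expressed as Texas Red dye-equivalent concentration from six-point plate standard.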

SMILES	max dye-equivalent concentration
Cc1[nH]c2ccc(Br)cc2c(=O)c1CN1CCCCC1	inconclusive: 1.8 nM
Cc1cccc(Cn2cnc3c(nnn3Cc3ccccc3F)c2=O)c1	inconclusive: 1.2 nM
Cc1ccc(-c2noc(C3CCCN(C(=O)c4ccc(F)cc4F)C3)n2)cc1 (centres undefined)	inconclusive: 1.9 nM
CN(Cc1nc(-c2ccccn2)no1)S(=O)(=O)c1ccc(Br)cc1	inconclusive: 2 nM
O=C(OCC(=O)N1CCN(C(=O)c2ccco2)CC1)c1ccccc1Cc1ccccc1	inconclusive: 2.3 nM
COc1ccc(NC(=O)CSc2nncs2)cc1OC	inconclusive: 1.1 nM
COc1ccccc1NC(=O)c1cc(S(=O)(=O)N2CCC3(CC2)OCCO3)ccc1F	inconclusive: 2.6 nM
CCOC(=O)N1CCN(S(=O)(=O)c2ccc(C(=O)Nc3nc4ccc(F)cc4s3)cc2)CC1	inconclusive: 1.5 nM
COc1ccc2[nH]c3cc4c(=O)c5cc(OC)ccc5[nH]c4cc3c(=O)c2c1	inconclusive: 1.1 nM
O=C(C[C@@H](c1ccccc1)N1CCCCC1)c1ccccc1	inactive
COC(=O)C1CCN(c2nc3ccccc3nc2C(C#N)C(=O)OCC(C)C)CC1 (centres undefined)	inconclusive: 1.3 nM
CC(C)(C)NC(=O)C(c1ccccc1F)N(Cc1ccco1)C(=O)c1csnn1 (centres undefined)	inconclusive: 1.9 nM
N#CC1=C(SCc2ccccc2Cl)NC(=O)C(C(N)=O)C1 (centres undefined)	inconclusive: 1.1 nM
Cc1nc2nc(COc3ccccc3)nn2c(C)c1Cl	inconclusive: 1.2 nM
COc1ccc(NCc2nnc(SCC(=O)Nc3cccc(C)c3)o2)cc1	inconclusive: 1.3 nM
CC(=O)c1c(C(C)=O)c(C)n(-c2ccc(C(=O)O)cc2)c1C	inconclusive: 2 nM
C=CCN(CC=C)C(=O)Cc1ccc(F)cc1	inconclusive: 1.1 nM
COc1ccc(NC(=O)c2ccc(=O)oc2)cc1	inconclusive: 1.6 nM
O=c1cc[nH]c2c(C(F)(F)F)cccc12	inconclusive: 1.4 nM
COc1ccc2cc1Oc1ccc(cc1)C[C@H]1c3cc(c(OC)cc3CCN1C)Oc1c(OC)c(OC)cc3c1[C@@H](C2)N(C)CC3	inconclusive: 6.7 nM
Cc1noc(C)c1-c1nc(Nc2ccccc2)c2ccccc2n1	inactive
O=C1c2ccccc2C(=O)c2c1ccc(N1C(=O)c3ccccc3C1=O)c2-c1c(N2C(=O)c3ccccc3C2=O)ccc2c1C(=O)c1ccccc1C2=O	inactive
CCCn1c(O)c(CN2CCCC(C)C2)c(C)c(C#N)c1=O (centres undefined)	inconclusive: 2.3 nM
COC(=O)c1c(=O)n(O)c2ccc(OC)cc2[n+]1[O-]	inactive
CCN(CC)S(=O)(=O)c1csc(C(=O)NC2CCCCC2)c1	inconclusive: 1.6 nM
CC1=Nn2c(nnc2-c2n[nH]c3c2CCC3)SC1	inconclusive: 1.3 nM
CC(C)CNS(=O)(=O)c1ccc(S(=O)(=O)N2CCCN(Cc3ccccc3)C2)cc1	inconclusive: 1.1 nM

Arranged by formula weight (ascending): part of the list above
SMILES	max dye-equivalent concentration
Cc1nc2nc(COc3ccccc3)nn2c(C)c1Cl	inconclusive: 1.2 nM
Cc1noc(C)c1-c1nc(Nc2ccccc2)c2ccccc2n1	inactive
N#CC1=C(SCc2ccccc2Cl)NC(=O)C(C(N)=O)C1 (centres undefined)	inconclusive: 1.1 nM
CCN(CC)S(=O)(=O)c1csc(C(=O)NC2CCCCC2)c1	inconclusive: 1.6 nM
COc1ccc2[nH]c3cc4c(=O)c5cc(OC)ccc5[nH]c4cc3c(=O)c2c1	inconclusive: 1.1 nM
O=C(OCC(=O)N1CCN(C(=O)c2ccco2)CC1)c1ccccc1Cc1ccccc1	inconclusive: 2.3 nM
CCOC(=O)N1CCN(S(=O)(=O)c2ccc(C(=O)Nc3nc4ccc(F)cc4s3)cc2)CC1	inconclusive: 1.5 nM
COc1ccc2cc1Oc1ccc(cc1)C[C@H]1c3cc(c(OC)cc3CCN1C)Oc1c(OC)c(OC)cc3c1[C@@H](C2)N(C)CC3	inconclusive: 6.7 nM
O=C1c2ccccc2C(=O)c2c1ccc(N1C(=O)c3ccccc3C1=O)c2-c1c(N2C(=O)c3ccccc3C2=O)ccc2c1C(=O)c1ccccc1C2=O	inactive

Further compounds follow:

SMILES	max dye-equivalent concentration
Cc1nc2sc(C)c(C)c2c(=O)o1	inconclusive: 1.2 nM
CC1(C)NC(=O)N(CCCOc2ccc3c(c2)CCC3)C1=O	inconclusive: 1.2 nM
CCc1nnc2c3cnn(-c4ccc(C)c(C)c4)c3ncn12	inconclusive: 1.4 nM
O=c1/c(=C/c2ccco2)sc2nc(-c3ccccc3Br)nn12	inconclusive: 1.6 nM
Clc1ccc(-c2nn3c(-c4ccccn4)nnc3s2)c(Cl)c1	inconclusive: 1.1 nM
COc1ccc(S(=O)(=O)N2CCC(O)(c3ccc4c(c3)OCO4)CC2)cc1	inconclusive: 1.1 nM
COCCN(C(=O)CNC(=O)c1cccs1)C(C(=O)NC1CCCCC1)c1ccco1 (centres undefined)	inconclusive: 2 nM
N#Cc1cc2ccccc2nc1SCC(=O)Nc1ccc(S(=O)(=O)N2CCCC2)cc1	inconclusive: 1.3 nM
CCOc1ccccc1NC(=O)CSc1nnc(-c2ccco2)n1Cc1ccco1	inconclusive: 1.1 nM
CCOC(=O)C1C(=O)C=C(c2ccc(OC)cc2)CC1c1ccco1 (centres undefined)	inconclusive: 1.3 nM
CN(Cc1ccc(-n2cccn2)cc1)C(=O)c1cnn2c1NC(c1ccco1)CC2C(F)(F)F (centres undefined)	inconclusive: 1.5 nM
O=C(O)CCN1CCOCC1	inconclusive: 1.2 nM
CCn1nnc(-c2ccccc2NS(=O)(=O)c2ccc(C(=O)OC)cc2)n1	inconclusive: 1.1 nM
Cc1ccc(C(C)C)c(OCC(O)CN2CCOCC2)c1 (centres undefined)	inactive
Cc1cccc2cc3ccc4ccccc4c3cc12	inactive
CCn1cc(C(=O)N2CC=C(c3ccccc3)CC2)c(=O)c2ccc(C)nc21	inconclusive: 1.5 nM
O=c1[nH]c(=O)n(C2CCCCCC2)c(O)c1C=NCc1ccc(F)cc1	inconclusive: 2.4 nM
COc1ncnc2c1N=C1CC(C)(C)CC(N)=C1S2	inconclusive: 2.2 nM
C=CCOc1cccc(C2C(C(=O)c3ccc(C)o3)=C(O)C(=O)N2Cc2ccncc2)c1 (centres undefined)	inconclusive: 1.1 nM
CCOc1ccc(N(Cc2cc3cc(OC)ccc3[nH]c2=O)S(C)(=O)=O)cc1	inconclusive: 1.4 nM
CC1CCCC(NC(=O)COC(=O)Cc2cn3ccsc3n2)C1C (centres undefined)	inconclusive: 1.7 nM
O=C1COc2ccc(C(=O)COC(=O)CCc3ccc(S(=O)(=O)N4CCOCC4)cc3)cc2N1	inconclusive: 2.2 nM
C=CCN1CCN(C(c2ccc(Cl)cc2)c2nnnn2CCc2ccc(OC)c(OC)c2)CC1 (centres undefined)	inconclusive: 1.3 nM
COCCNC(=O)C(c1ccc(F)cc1)N(CC1CCCO1)C(=O)CCC(=O)Nc1ccccn1 (centres undefined)	inconclusive: 1.4 nM
Cc1cc(=O)[nH]c2c(C)c(Cl)ccc12	inconclusive: 1.3 nM
O=C(C1Cc2ccccc2CN1S(=O)(=O)c1cccs1)N1CCCCC1 (centres undefined)	inconclusive: 1.1 nM
CCS(=O)(=O)N1CCN(C(=O)CCC2CCCC2)CC1	inconclusive: 1.2 nM
